Experimental findings from paper PMC3235137 are described below.

By UniProt entry, the sequences of proteins in these tests, tags left out.
UniProt Q8AYS8: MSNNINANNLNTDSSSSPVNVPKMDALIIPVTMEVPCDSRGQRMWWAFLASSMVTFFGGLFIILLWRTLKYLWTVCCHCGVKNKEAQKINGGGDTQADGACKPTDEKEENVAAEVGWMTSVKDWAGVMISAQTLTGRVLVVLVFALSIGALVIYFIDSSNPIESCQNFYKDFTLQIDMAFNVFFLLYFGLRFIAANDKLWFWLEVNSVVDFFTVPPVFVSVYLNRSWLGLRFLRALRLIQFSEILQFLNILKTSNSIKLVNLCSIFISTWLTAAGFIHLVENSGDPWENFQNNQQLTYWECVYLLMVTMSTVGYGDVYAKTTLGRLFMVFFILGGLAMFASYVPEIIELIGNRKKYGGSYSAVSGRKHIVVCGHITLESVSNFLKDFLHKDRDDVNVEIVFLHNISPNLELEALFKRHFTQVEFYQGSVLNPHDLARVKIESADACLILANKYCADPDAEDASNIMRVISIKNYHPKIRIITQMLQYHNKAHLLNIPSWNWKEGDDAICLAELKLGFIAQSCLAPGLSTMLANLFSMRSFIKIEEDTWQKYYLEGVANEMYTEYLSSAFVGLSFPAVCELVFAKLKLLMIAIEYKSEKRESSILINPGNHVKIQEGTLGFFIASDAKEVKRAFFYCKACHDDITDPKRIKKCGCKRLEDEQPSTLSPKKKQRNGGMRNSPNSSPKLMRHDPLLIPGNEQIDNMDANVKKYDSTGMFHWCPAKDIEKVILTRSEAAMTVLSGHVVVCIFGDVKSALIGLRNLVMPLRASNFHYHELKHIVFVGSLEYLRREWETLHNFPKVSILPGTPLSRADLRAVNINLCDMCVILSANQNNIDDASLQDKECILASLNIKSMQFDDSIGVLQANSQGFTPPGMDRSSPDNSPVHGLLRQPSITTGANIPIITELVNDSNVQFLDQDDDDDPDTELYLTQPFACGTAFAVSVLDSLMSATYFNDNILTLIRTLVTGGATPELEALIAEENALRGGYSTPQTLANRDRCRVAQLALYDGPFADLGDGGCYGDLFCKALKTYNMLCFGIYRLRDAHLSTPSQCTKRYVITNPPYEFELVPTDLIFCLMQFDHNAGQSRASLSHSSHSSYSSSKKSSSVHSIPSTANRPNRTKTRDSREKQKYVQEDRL

In the test the target is large-conductance Ca2+-activated K+ (BK) channel α-subunit (chicken (endogenous in chick cochlea)) (UniProt Q8AYS8). As to the kind of experiment: affinity purification with mass spectrometry; polyclonal anti-BKα (Chemicon) immunocomplex capture on protein G beads from membrane/cytoskeletal (1% ASB-14) and cytoplasmic fractions of chick cochlea; 2-D gel, LC-MS/MS; controls: irrelevant antibody, unbound beads.

Results are given in words; binding and its absence hold for the method and conditions named. Binding seen in cells or lysates may run through a third protein. Here binding means that the protein was enriched with, or labelled near, the bait; the list need not be complete.

B1: prohibitin (protein, UniProt P84173 1-272)
chain: MAAKVFESIGKFGLGLAVAGGVVNSALYNVDAGHRAVIFDRFRGVQDTVVGEGTHFLIPWVQKPIIFDCRSRPRNIPVITGSKDLQNVNITLRILFRPVTAQLPRIFTSIGEDYDERVLPSITTEILKSVVARFDAGELITQRELVSRQVSEDLTERAATFGLILDDVSLTHLTFGKEFTEAVEMKQVAQQEAERARFIVEKAEQQKKAAVISAEGDSKAAELIANSLATAGDGLIELRKLEAAEDIAYQLSRSRNITYLPSGQSVLLQLPQ
For B1, the binding result is reported as “binds”.

B2: lin-7 homolog C (protein, UniProt Q5F425 1-197)
chain: MAALGEPVRLERDICRAIELLEKLQRSGEVPPQKLQALQRVLQSEFCNAVREVYEHVYETVDISSSPEVRANATAKATVAAFAASEGHSHPRVVELPKTEEGLGFNIMGGKEQNSPIYISRIIPGGIADRHGGLKRGDQLLSVNGVSVEGEHHEKAVELLKAAQGKVKLVVRYTPKVLEEMESRFEKMRSAKRRQQN
Regarding B2, the binding entry is listed as “binds”.

B3: stathmin (protein, UniProt P31395 1-148)
chain: MATSDIQVKELEKRASGQAFELILGPRSKEAAPEFPLSPPKKKDLSLEEIQKKLEAAEERRKSHEAEVLKQLAEKREHEKEVLQKAIEENNNFSKMAEEKLTHKMEANKENREAQMAAKLERLREKDKHIEEVRKNKEGKDPGEAETN
As to B3, the binding result is “binds”.

B4: annexin A5 (protein, UniProt P17153 1-321)
chain: MAKYTRGTVTAFSPFDARADAEALRKAMKGMGTDEETILKILTSRNNAQRQEIASAFKTLFGRDLVDDLKSELTGKFETLMVSLMRPARIFDAHALKHAIKGAGTNEKVLTEILASRTPAEVQNIKQVYMQEYEANLEDKITGETSGHFQRLLVVLLQANRDPDGRVDEALVEKDAQVLFRAGELKWGTDEETFITILGTRSVSHLRRVFDKYMTISGFQIEETIDRETSGDLEKLLLAVVKCIRSVPAYFAETLYYSMKGAGTDDDTLIRVMVSRSEIDLLDIRHEFRKNFAKSLYQMIQKDTSGDYRKALLLLCGGDDE
For the molecule B4, the binding result is “binds”.

B5: 14-3-3γ (protein, UniProt Q5F3W6 1-247)
chain: MVDREQLVQKARLAEQAERYDDMAAAMKNVTELNEPLSNEERNLLSVAYKNVVGARRSSWRVISSIEQKTSADGNEKKIEMVRAYREKIEKELGAVCQDVLSLLDNYLIKNCSETQYESKVFYLKMKGDYYRYLAEVATGEKRATVVESSEKAYSEAHEISKEHMQPTHPIRLGLALNYSVFYYEIQNAPEQACHLAKTAFDDAIAELDTLNEDSYKDSTLIMQLLRDNLTLWTSDQQDDDGGEGNN
With B5, the binding entry is “binds”.

B6: heat shock protein (HSP) 60 (protein, UniProt Q5ZL72 27-573)
chain: AKDVKFGADARALMLQGVDLLADAVAVTMGPKGRTVIIEQSWGSPKVTKDGVTVAKAIDLKDKYKNIGAKLVQDVANNTNEEAGDGTTTATVLARAIAKEGFEKISKGANPVEIRRGVMLAVDAITAELKKLSKPVTTPEEIAQVATISANGDQEIGNIISDAMKKVGRKGVITVKDGKTLNDELEIIEGMKFDRGYISPYFINTAKGQKCEFQDAYVLISEKKISSVQSIVPALEIANSHRKPLVIIAEDVDGEALSTLVLNRLKVGLQVVAVKAPGFGDNRKNQLKDMAIATGGAVFGEEGLSLNVEDIQPHDFGKVGEVIVTKDDTMLLKGKGEKAQIEKRIQEIIEQLEVTTSEYEKEKLNERLAKLSDGVAVLKVGGTSDVEVNEKKDRVTDALNATRAAVEEGIVPGGGCALLRCIPALDALKPANEDQKIGIEIIKRTLKIPAMTIAKNAGVEGSLIVEKILQSSSEVGYDAMLGEFVNMVEKGIIDPTKVVRTALMDAAGVASLLSTAEAVVTEVPKEEKEPAMGGMGGMGGGMGGGMF
As to B6, the binding entry is “binds”.
